Measurements taken from article doi:10.1101/2024.07.09.602679 (bioRxiv, 2024).
These are yes or no findings as the source states them, for the method shown. Some entries that bind do so weakly or less than the wild type. Where a sequence is shown, tags or fusion partners need not be part of it.

T1: SmG with N-terminal His6-TEV tag (S. cerevisiae) (UniProt P40204)
T1 sequence: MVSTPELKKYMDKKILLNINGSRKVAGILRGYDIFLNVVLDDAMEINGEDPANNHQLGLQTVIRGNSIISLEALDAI

T2: SmE with N-terminal His6-TEV tag (S. cerevisiae) (UniProt Q12330)
T2 sequence: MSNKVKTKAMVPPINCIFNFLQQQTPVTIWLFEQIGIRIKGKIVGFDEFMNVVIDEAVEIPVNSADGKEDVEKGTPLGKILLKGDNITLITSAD

T3: SmB (residues 1-105) with N-terminal His6-TEV tag (S. cerevisiae) (UniProt P40018)
T3 sequence: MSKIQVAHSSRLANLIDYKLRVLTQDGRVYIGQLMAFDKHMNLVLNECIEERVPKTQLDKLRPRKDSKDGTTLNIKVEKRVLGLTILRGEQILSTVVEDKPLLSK

T4: SmD2 with N-terminal His6-TEV tag (S. cerevisiae) (UniProt Q06217)
T4 sequence: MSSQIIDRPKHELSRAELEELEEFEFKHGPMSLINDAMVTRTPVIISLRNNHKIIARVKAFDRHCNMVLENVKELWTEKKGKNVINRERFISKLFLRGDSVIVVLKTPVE

T5: D1/D2/F/E/G pentamer (5Sm) (S. cerevisiae, UniProt Q02260 1-109; Q06217 1-110; P54999 1-86; Q12330 1-94; P40204 1-77)
T5 sequence (looked up) 1: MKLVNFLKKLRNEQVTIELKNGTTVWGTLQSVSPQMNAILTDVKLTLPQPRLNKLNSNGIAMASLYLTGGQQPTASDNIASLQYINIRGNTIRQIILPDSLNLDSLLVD
T5 sequence (looked up) 2: T4 sequence
T5 sequence (looked up) 3: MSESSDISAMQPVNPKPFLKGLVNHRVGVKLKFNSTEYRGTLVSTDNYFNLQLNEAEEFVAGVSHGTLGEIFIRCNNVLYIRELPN
T5 sequence (looked up) 4: T2 sequence
T5 sequence (looked up) 5: T1 sequence

T6: full-length Brr1 with N-terminal His6-TEV tag (S. cerevisiae) (UniProt Q99177)
T6 sequence: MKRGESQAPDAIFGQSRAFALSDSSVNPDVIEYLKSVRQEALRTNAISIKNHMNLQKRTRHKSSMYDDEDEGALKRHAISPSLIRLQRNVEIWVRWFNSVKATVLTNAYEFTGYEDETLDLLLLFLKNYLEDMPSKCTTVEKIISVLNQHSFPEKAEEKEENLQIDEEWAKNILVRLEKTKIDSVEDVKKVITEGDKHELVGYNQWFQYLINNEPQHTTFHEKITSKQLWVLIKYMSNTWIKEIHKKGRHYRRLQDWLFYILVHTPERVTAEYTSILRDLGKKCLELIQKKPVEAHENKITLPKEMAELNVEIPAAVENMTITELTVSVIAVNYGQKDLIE

T7: Brr1/5Sm heterohexamer (S. cerevisiae, UniProt Q99177 1-341; Q02260 1-109; Q06217 1-110; P54999 1-86; Q12330 1-94; P40204 1-77)
T7 sequence (looked up) 1: T6 sequence
T7 sequence (looked up) 2: T5 sequence (looked up) 1
T7 sequence (looked up) 3: T4 sequence
T7 sequence (looked up) 4: T5 sequence (looked up) 3
T7 sequence (looked up) 5: T2 sequence
T7 sequence (looked up) 6: T1 sequence

T8: Brr1Δ(122-197) with N-terminal His6-TEV tag (S. cerevisiae) (UniProt Q99177)
T8 sequence: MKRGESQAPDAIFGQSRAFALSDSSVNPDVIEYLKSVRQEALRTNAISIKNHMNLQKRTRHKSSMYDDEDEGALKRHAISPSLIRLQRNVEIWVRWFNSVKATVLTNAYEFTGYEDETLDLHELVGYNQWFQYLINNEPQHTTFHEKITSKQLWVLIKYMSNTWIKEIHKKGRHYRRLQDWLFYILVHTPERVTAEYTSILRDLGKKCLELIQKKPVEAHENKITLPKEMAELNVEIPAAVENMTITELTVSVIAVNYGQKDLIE

T9: Lot5 (residues 1-227) with N-terminal His6-TEV tag (S. cerevisiae) (UniProt P34234)
T9 sequence: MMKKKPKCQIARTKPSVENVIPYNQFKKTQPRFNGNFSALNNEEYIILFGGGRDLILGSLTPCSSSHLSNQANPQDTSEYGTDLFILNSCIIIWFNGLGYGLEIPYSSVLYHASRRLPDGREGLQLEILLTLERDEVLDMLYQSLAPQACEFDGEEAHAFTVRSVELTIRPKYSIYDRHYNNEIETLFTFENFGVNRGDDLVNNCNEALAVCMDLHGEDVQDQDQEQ

T10: SmD3/B subcomplex with the His6-TEV tag on SmB (S. cerevisiae) (UniProt P40018+P43321)
T10 sequence 1: T3 sequence
T10 sequence 2: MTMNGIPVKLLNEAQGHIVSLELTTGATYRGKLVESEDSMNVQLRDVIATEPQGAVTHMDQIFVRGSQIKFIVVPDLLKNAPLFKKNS

B1: SmD3 (residues 1-88) (domain or fragment, UniProt P43321 1-88)
chain: T10 sequence 2
B2: SmD1 (residues 1-109) (domain or fragment, UniProt Q02260 1-109)
chain: T5 sequence (looked up) 1
B3: SmD3/B subcomplex, HT-tag removed (complex, S. cerevisiae)
chain 1: T3 sequence
chain 2: T10 sequence 2
B4: extra helical domain (EHD) of Brr1 (116-197) (domain or fragment, UniProt Q99177 116-197)
chain: DETLDLLLLFLKNYLEDMPSKCTTVEKIISVLNQHSFPEKAEEKEENLQIDEEWAKNILVRLEKTKIDSVEDVKKVITEGDK
B5: Lot5 (residues 1-227) with N-terminal His6-TEV tag (domain or fragment, S. cerevisiae, UniProt P34234 1-227, looked up)
chain: T9 sequence
B6: full-length Brr1, HT-tag removed (natural protein, S. cerevisiae, UniProt Q99177 1-341, looked up)
chain: T6 sequence

What was measured:
[1] = target: T1, SmG with N-terminal His6-TEV tag (S. cerevisiae); assay: co-purification after co-expression
[2] = target: T2, SmE with N-terminal His6-TEV tag (S. cerevisiae); assay: co-purification after co-expression
[3] = target: T3, SmB (residues 1-105) with N-terminal His6-TEV tag (S. cerevisiae); assay: SEC
[4] = target: T3, SmB (residues 1-105) with N-terminal His6-TEV tag (S. cerevisiae); assay: co-purification after co-expression
[5] = target: T4, SmD2 with N-terminal His6-TEV tag (S. cerevisiae); assay: SEC
[6] = target: T4, SmD2 with N-terminal His6-TEV tag (S. cerevisiae); assay: co-purification after co-expression
[7] = target: T5, D1/D2/F/E/G pentamer (5Sm); assay: SEC
[8] = target: T6, full-length Brr1 with N-terminal His6-TEV tag (S. cerevisiae); assay: pull-down
[9] = target: T7, Brr1/5Sm heterohexamer; assay: pull-down
[10] = target: T8, Brr1Δ(122-197) with N-terminal His6-TEV tag (S. cerevisiae); assay: pull-down
[11] = target: T9, Lot5 (residues 1-227) with N-terminal His6-TEV tag (S. cerevisiae); assay: SEC
[12] = target: B6; assay: SEC
[13] = target: T10, SmD3/B subcomplex with the His6-TEV tag on SmB (S. cerevisiae); assay: pull-down
[14] = target: reconstituted Sm core with the HT-tag on SmB (S. cerevisiae) (UniProt Q02260); assay: pull-down

SmF (from UniProt P54999 1-86)
binding [1]: binds | binding [2]: binds

B1
binding [3]: binds | binding [4]: binds

B2
binding [5]: binds | binding [6]: binds

B3
binding [7]: no binding | binding [8]: no binding | binding [9]: no binding | binding [10]: no binding

B4
binding [10]: no binding

B5
binding [11]: no binding

B6
binding [12]: no binding | binding [13]: no binding | binding [14]: no binding
